US20100021918A1, “METHOD FOR ASSAYING ACTION OF ANTITUMOR AGENT USING SPLICING DEFECTS AS INDEX” (Eisai R&D Management Co., Ltd., priority 2007, published 2010)
The source gives many values for each of these; only a part stands here.

Tested on: peripheral blood mononuclear cells (PBMC)
Assay: Microarray analysis (3), dose-dependent intron expression in PBMC at 3, 10, 30 nM, Table 5
Assay type: cell-based, human
Method: PBMC was suspended in RPMI1640 medium (containing 10% FBS, penicillin, and streptomycin) to 5×10^6 cells/ml and 1 ml of the suspension was plated per well of a 24-well plate. Immediately, 111 μl of 10 times-concentrated (8E,12E,14E)-7-((4-cycloheptylpiperazin-1-yl)carbonyl)oxy-3,6,16,21-tetrahydroxy-6,10,12,16,20-pentamethyl-18,19-epoxytricosa-8,12,14-trien-11-olide was added to the well (six wells per each concentration tested). The cells were then cultured in an incubator with 5% carbon dioxide gas at 37° C. Three hours later, the supernatant was collected and centrifuged at 1500 rpm for five minutes. TRI reagent (SIGMA) (1 ml) was added to each well of the plate from which the supernatant was removed to harvest the cells, which was added to the centrifuged pellet to dissolve. RNA was purified in accordance with the protocol of TRI reagent. RNA was further purified using RNeasy (QIAGEN) and, in accordance with the protocol, DNaseI was added to the samples during the procedure. Absorbance at 260 nm was measured to quantify an amount of RNA.
Ribosomal RNA was removed from 1 μg of each total RNA of control cells (n=3) and cells with the treatment (n=3) using RiboMinus Human/Mouse Transcriptome Isolation Kit (Invitrogen). Single stranded cDNA synthesis, double stranded cDNA synthesis, cRNA synthesis, second single stranded cDNA synthesis, cDNA fragmentation, and cDNA labeling in order were carried out for total RNA from which ribosomal RNA was removed, using GeneChip Whole Transcript Sense Target Labeling and Control Reagents (Affymetrix) to make a cDNA probe. Subsequently, the cDNA probe was used for hybridization with Human Exon 1.0 ST Array (Affymetrix). The array was washed and stained, and luminescence intensity was measured by a scanner.
The expression level of the probe set and the gene was quantified by using Expression Console Ver. 1.0 (Affymetrix) with Summarization Method and Normalization Method being set to “Median polish as used in RMA” and “None”, respectively. The expression level of the probe was normalized with that of the gene.
Probe sets showing that the normalized change in the level expression of the probe set in the group with the treatment at 30 nM was more than 5 times; the expression level of the probe set and the gene in the group with the treatment at 30 nM was more than 100; and probe set annotation was “extended, full, free”, were picked out. Regression analysis was performed with the probe sets extracted for the control group, the group with the treatment at 3 nM, the group with the treatment at 10 nM, and the group with the treatment at 30 nM to determine a p and q value for the slope of regression formula. A gene containing the probe sets with the q value of less than 5% was determined as a candidate gene with increased expression level of the intron regions (Table 5).
In Table 5, for the gene evaluated, gene name (Gene Name), abbreviated name (Gene Symbol), accession number (Accession), alias name (Synonym), transcription cluster number in Human Exon 1.0 ST Array (Human Exon 1.0 ST Array Transcription Cluster ID), chromosome number (Chromosome), type of strand (Strand), start region (Start), stop region (Stop), and change in expression level per 1 nM (Fold Change/nM) were respectively shown.

Question: For `CCC(O)C(C)C1OC1CC(C)(O)/C=C/C=C(\C)C1OC(=O)CC(O)CCC(C)(O)C(OC(=O)N2CCN(C3CCCCCC3)CC2)/C=C/C1C` (centres unmarked) [E7107, (8E,12E,14E)-7-((4-cycloheptylpiperazin-1-yl)carbonyl)oxy-3,6,16,21-tetrahydroxy-6,10,12,16,20-pentamethyl-18,19-epoxytricosa-8,12,14-trien-11-olide], which “Fold Change/nM” value (introns of gene SERBP1, regression over control, 3, 10, 30 nM) is on record?
Answer: 1.04 nM⁻¹

Question: What about the “Fold Change/nM” value (introns of gene SERPINB8, regression over control, 3, 10, 30 nM) of the same compound?
Answer: 1.06 nM⁻¹

Question: What about the “Fold Change/nM” value (introns of gene SESN3, regression over control, 3, 10, 30 nM) of the same compound?
Answer: 1.07 nM⁻¹

Question: And the “Fold Change/nM” value (introns of gene SF1, regression over control, 3, 10, 30 nM)?
Answer: 1.04 nM⁻¹

Question: What about the “Fold Change/nM” value (introns of gene SF3B3, regression over control, 3, 10, 30 nM) of the same compound?
Answer: 1.04 nM⁻¹

Question: What about the “Fold Change/nM” value (introns of gene SIPA1L1, regression over control, 3, 10, 30 nM) of the same compound?
Answer: 1.06 nM⁻¹

Question: What about the “Fold Change/nM” value (introns of gene SLC7A5 // LAT1-3TM, regression over control, 3, 10, 30 nM) of the same compound?
Answer: 1.06 nM⁻¹

Question: What about the “Fold Change/nM” value (introns of gene SLC16A3, regression over control, 3, 10, 30 nM) of the same compound?
Answer: 1.07 nM⁻¹

Question: What about the “Fold Change/nM” value (introns of gene SLC35B1, regression over control, 3, 10, 30 nM) of the same compound?
Answer: 1.04 nM⁻¹

Question: And the “Fold Change/nM” value (introns of gene SLC43A2, regression over control, 3, 10, 30 nM)?
Answer: 1.06 nM⁻¹

Question: What about the “Fold Change/nM” value (introns of gene SLC43A3, regression over control, 3, 10, 30 nM) of the same compound?
Answer: 1.04 nM⁻¹

Question: What about the “Fold Change/nM” value (introns of gene SLK, regression over control, 3, 10, 30 nM) of the same compound?
Answer: 1.04 nM⁻¹

Question: What about the “Fold Change/nM” value (introns of gene SLU7, regression over control, 3, 10, 30 nM) of the same compound?
Answer: 1.05 nM⁻¹

Question: What about the “Fold Change/nM” value (introns of gene SMC1A, regression over control, 3, 10, 30 nM) of the same compound?
Answer: 1.05 nM⁻¹

Question: And the “Fold Change/nM” value (introns of gene SNRP70, regression over control, 3, 10, 30 nM)?
Answer: 1.04 nM⁻¹

Question: What about the “Fold Change/nM” value (introns of gene SNX9 // SYNJ2, regression over control, 3, 10, 30 nM) of the same compound?
Answer: 1.06 nM⁻¹

Question: What about the “Fold Change/nM” value (introns of gene SORL1 // C11orf32, regression over control, 3, 10, 30 nM) of the same compound?
Answer: 1.04 nM⁻¹

Question: What about the “Fold Change/nM” value (introns of gene SOS2, regression over control, 3, 10, 30 nM) of the same compound?
Answer: 1.06 nM⁻¹

Question: And the “Fold Change/nM” value (introns of gene SPTAN1, regression over control, 3, 10, 30 nM)?
Answer: 1.04 nM⁻¹

Question: And the “Fold Change/nM” value (introns of gene STARD7, regression over control, 3, 10, 30 nM)?
Answer: 1.06 nM⁻¹

Question: What about the “Fold Change/nM” value (introns of gene STAT5B, regression over control, 3, 10, 30 nM) of the same compound?
Answer: 1.04 nM⁻¹

Question: What about the “Fold Change/nM” value (introns of gene SYAP1, regression over control, 3, 10, 30 nM) of the same compound?
Answer: 1.06 nM⁻¹

Question: What about the “Fold Change/nM” value (introns of gene TBC1D23, regression over control, 3, 10, 30 nM) of the same compound?
Answer: 1.07 nM⁻¹

Question: And the “Fold Change/nM” value (introns of gene TBK1, regression over control, 3, 10, 30 nM)?
Answer: 1.07 nM⁻¹

Question: And the “Fold Change/nM” value (introns of gene TBP, regression over control, 3, 10, 30 nM)?
Answer: 1.04 nM⁻¹

Question: What about the “Fold Change/nM” value (introns of gene TCEB3, regression over control, 3, 10, 30 nM) of the same compound?
Answer: 1.07 nM⁻¹

Question: And the “Fold Change/nM” value (introns of gene TFRC, regression over control, 3, 10, 30 nM)?
Answer: 1.04 nM⁻¹

Question: What about the “Fold Change/nM” value (introns of gene TGFB1, regression over control, 3, 10, 30 nM) of the same compound?
Answer: 1.04 nM⁻¹

Question: And the “Fold Change/nM” value (introns of gene TIMM23, regression over control, 3, 10, 30 nM)?
Answer: 1.05 nM⁻¹

Question: What about the “Fold Change/nM” value (introns of gene TIMP1, regression over control, 3, 10, 30 nM) of the same compound?
Answer: 1.08 nM⁻¹

Question: What about the “Fold Change/nM” value (introns of gene TJP2, regression over control, 3, 10, 30 nM) of the same compound?
Answer: 1.06 nM⁻¹

Question: What about the “Fold Change/nM” value (introns of gene TMBIM1, regression over control, 3, 10, 30 nM) of the same compound?
Answer: 1.04 nM⁻¹

Question: And the “Fold Change/nM” value (introns of gene TMEM161B // ITGA2B, regression over control, 3, 10, 30 nM)?
Answer: 1.04 nM⁻¹

Question: What about the “Fold Change/nM” value (introns of gene TNFRSF25 // PLEKHG5, regression over control, 3, 10, 30 nM) of the same compound?
Answer: 1.04 nM⁻¹

Question: What about the “Fold Change/nM” value (introns of gene TNIK, regression over control, 3, 10, 30 nM) of the same compound?
Answer: 1.06 nM⁻¹

Question: And the “Fold Change/nM” value (introns of gene TNIP1, regression over control, 3, 10, 30 nM)?
Answer: 1.06 nM⁻¹

Question: What about the “Fold Change/nM” value (introns of gene TRAF1, regression over control, 3, 10, 30 nM) of the same compound?
Answer: 1.06 nM⁻¹

Question: What about the “Fold Change/nM” value (introns of gene TRIM8, regression over control, 3, 10, 30 nM) of the same compound?
Answer: 1.04 nM⁻¹

Question: And the “Fold Change/nM” value (introns of gene TRPC4AP, regression over control, 3, 10, 30 nM)?
Answer: 1.04 nM⁻¹

Question: What about the “Fold Change/nM” value (introns of gene UBE1L2, regression over control, 3, 10, 30 nM) of the same compound?
Answer: 1.04 nM⁻¹

Question: What about the “Fold Change/nM” value (introns of gene UBE2Z, regression over control, 3, 10, 30 nM) of the same compound?
Answer: 1.05 nM⁻¹

Question: And the “Fold Change/nM” value (introns of gene USP8, regression over control, 3, 10, 30 nM)?
Answer: 1.04 nM⁻¹

Question: And the “Fold Change/nM” value (introns of gene UTX // UTY (chrX, cluster 3975467), regression over control, 3, 10, 30 nM)?
Answer: 1.06 nM⁻¹

Question: What about the “Fold Change/nM” value (introns of gene UTY // UTX (chrY, cluster 4035017), regression over control, 3, 10, 30 nM) of the same compound?
Answer: 1.07 nM⁻¹

Question: What about the “Fold Change/nM” value (introns of gene VIL2, regression over control, 3, 10, 30 nM) of the same compound?
Answer: 1.08 nM⁻¹

Question: And the “Fold Change/nM” value (introns of gene VPS4B, regression over control, 3, 10, 30 nM)?
Answer: 1.04 nM⁻¹

Question: What about the “Fold Change/nM” value (introns of gene WDR1, regression over control, 3, 10, 30 nM) of the same compound?
Answer: 1.04 nM⁻¹

Question: And the “Fold Change/nM” value (introns of gene WIPI2, regression over control, 3, 10, 30 nM)?
Answer: 1.05 nM⁻¹

Question: And the “Fold Change/nM” value (introns of gene WSB1, regression over control, 3, 10, 30 nM)?
Answer: 1.04 nM⁻¹

Question: And the “Fold Change/nM” value (introns of gene XPO1 // THRB, regression over control, 3, 10, 30 nM)?
Answer: 1.06 nM⁻¹

Question: What about the “Fold Change/nM” value (introns of gene YIPF5, regression over control, 3, 10, 30 nM) of the same compound?
Answer: 1.06 nM⁻¹

Question: What about the “Fold Change/nM” value (introns of gene YTHDC1, regression over control, 3, 10, 30 nM) of the same compound?
Answer: 1.04 nM⁻¹

Question: And the “Fold Change/nM” value (introns of gene YY1, regression over control, 3, 10, 30 nM)?
Answer: 1.05 nM⁻¹

Question: And the “Fold Change/nM” value (introns of gene ZC3H12A, regression over control, 3, 10, 30 nM)?
Answer: 1.04 nM⁻¹

Question: What about the “Fold Change/nM” value (introns of gene ZFP91 // CNTF, regression over control, 3, 10, 30 nM) of the same compound?
Answer: 1.06 nM⁻¹

Question: And the “Fold Change/nM” value (introns of gene ZNF313, regression over control, 3, 10, 30 nM)?
Answer: 1.04 nM⁻¹
